Experimental data from US6355627B1, “Branched cyclodextrin clathrate compound of hinokitiols and composition containing the same” (Takasago International Corporation, priority 1999, dated 2002).
“And” between values parts separate entries of the source, which are not always exact repeats. Equal entries are not always repeated.

Assay: Evaluation of corrosion of stainless test piece in aqueous solution
Settings: 0.1% aqueous solution (1.0% for the clathrate), stirred

## CC(C)c1cccc(=O)c([O-])c1.[Na+] [sodium salt of hinokitiol]
90° C.
  Corrosion rate at 90° C., Sus 304: 0.30 mm/year and 0.30 mm mm/year
Room temperature (25° C.)
  Corrosion rate at 25° C., Sus 304: 0.10 mm/year and 0.10 mm mm/year
